Counter-ions that a name gives are not always drawn. Some of these results come from one statement about several compounds together.
The compounds below were run against T1, TYK2 kinase domain (Homo sapiens, UniProt P29597) (assay: JAK1, JAK2 and TYK2 Inhibition Assay Protocol (Example A): TYK2 kinase domain, Caliper LabChip peptide phosphorylation).
T1 construct: The activity of the isolated JAK1, JAK2 or TYK2 kinase domain was measured
T1 sequence (P29597 897-1176 limits assumed): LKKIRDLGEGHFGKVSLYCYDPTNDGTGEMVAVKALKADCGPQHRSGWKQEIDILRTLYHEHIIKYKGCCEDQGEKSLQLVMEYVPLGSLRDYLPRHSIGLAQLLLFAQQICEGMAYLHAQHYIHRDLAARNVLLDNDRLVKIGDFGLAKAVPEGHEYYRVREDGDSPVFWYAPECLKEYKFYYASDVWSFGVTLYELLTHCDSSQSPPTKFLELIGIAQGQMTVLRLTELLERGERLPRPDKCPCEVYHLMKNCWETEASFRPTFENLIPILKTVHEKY
Assay type: biochemical

Ki, < 500 nM:
N#Cc1cc(N)cc(Cl)c1-n1cc2c(Nc3cc(N)ncn3)ncc(F)c2n1 [Example 101, 5-Amino-2-[4-(6-aminopyrimidin-4-ylamino)-7-fluoropyrazolo[4,3-c]pyridin-2-yl]-3-chlorobenzonitrile formate salt]
N#Cc1cc(Cl)c(-n2cc3c(Nc4cc(CO)ncn4)ncc(F)c3n2)c(Cl)c1 [Example 78, 3,5-Dichloro-4-[7-fluoro-4-(6-hydroxymethyl-pyrimidin-4-ylamino)-pyrazolo[4,3-c]pyridin-2-yl]-benzonitrile]
CC(=O)Nc1cc(Nc2nccc3nn(-c4c(Cl)cccc4Cl)cc23)ncn1 [Example 60, N-{6-[2-(2,6-Dichloro-phenyl)-2H-pyrazolo[4,3-c]pyridin-4-ylamino]-pyrimidin-4-yl}-acetamide]
CC(C)(O)CNc1cc(Nc2nccc3nn(-c4c(Cl)cccc4Cl)cc23)ncn1 [Example 62, 1-{6-[2-(2,6-Dichlorophenyl)-2H-pyrazolo[4,3-c]pyridin-4-ylamino]pyrimidin-4-ylamino}-2-methylpropan-2-ol]
CC(=O)Nc1cc(Nc2ncc(F)c3nn(-c4c(F)cccc4Cl)cc23)ncn1 [Example 149, N-{6-[2-(2-Chloro-6-fluorophenyl)-7-fluoro-2H-pyrazolo[4,3-c]pyridin-4-ylamino]-pyrimidin-4-yl}-acetamide•HCl]
N#Cc1cc(Cl)c(-n2cc3c(Nc4cc(CO)ncn4)ncc(Cl)c3n2)c(Cl)c1 [Example 77, 3,5-Dichloro-4-[7-chloro-4-(6-hydroxymethyl-pyrimidin-4-ylamino)pyrazolo[4,3-c]pyridin-2-yl]benzonitrile]
Cc1cc(Nc2nccc3nn(-c4c(Cl)cc(C#N)cc4Cl)cc23)ncn1 [Example 68, 3,5-Dichloro-4-[4-(6-methylpyrimidin-4-ylamino)pyrazolo[4,3-c]pyridin-2-yl]benzonitrile]
Cc1cc(Nc2nccc3nn(-c4c(Cl)cccc4C#N)cc23)ncn1 [Example 88, 3-chloro-2-(4-(6-methylpyrimidin-4-ylamino)-2H-pyrazolo[4,3-c]pyridin-2-yl)benzonitrile]
CNc1cc(Nc2nccc3nn(-c4c(Cl)cccc4Cl)cc23)ncn1 [Example 4, N-[2-(2,6-Dichlorophenyl)-2H-pyrazolo[4,3-c]pyridine-4-yl]-N′-methylpyrimidine-4,6-diamine]

Reference: patent US9309240B2, “Pyrazolopyridine compounds, compositions and methods of use” (F. HOFFMANN-LA ROCHE AG, priority 2010, dated 2016)
